Assay results: PubChem BioAssay AID504467 (National Center for Advancing Translational Sciences (NCATS), 2011)
Screen size: about 330,000 compounds; about 7,700 (2.3%) were called active. Inconclusive results, whose numbers are uncertain, are shown with a selection of clear calls. Calls follow the shape of the dose curve; as a rule, active = well fitted inhibition curve with a large enough effect; inconclusive = small, poorly fitted or top-dose-only effect, or effect the other way; inactive = flat fitted curve, though single readings scatter. Where the call is inconclusive, the potency comes from a doubtful curve fit.
Potency is read from the fitted curve at half-maximal effect.

Assay: qHTS screen for small molecules that inhibit ELG1-dependent DNA repair in human embryonic kidney (HEK293T) cells expressing luciferase-tagged ELG1; also: nearly all actives have a fitted effect of over 55% in size
Details: HEK293T ELG1-luciferase reporter, luminescence, 16 h, DNA damage induced by 5-fluorouridine; series mostly up to 46.1 µM
Summary of the method: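 Overnight (16 hr) co-exposure of 2,000 cells/well to 5-fluorouridine and compound at 37 °C preceded detection. Luciferase was quantified via ONE-Glo luminescence; loss of signal denotes inhibition.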
In the case of `O=C(c1ccc(NS(=O)(=O)/C=C/c2ccccc2)cc1)N1CCCCC1`, the Potency is reported as inconclusive: 1.83 µM [inhibitor, partial curve, poor fit].
In the case of `O=C1C=C(c2ccc3c(c2)oc2ccccc23)C[C@@H](c2ccc(Cl)cc2)C1`, the Potency is reported as “inactive”.
With `CN1CCN(C(c2ccc(Br)cc2)c2cc(Cl)c3cccnc3c2O)CC1` (configuration not stated) the Potency was inconclusive: 18.3 µM [inhibitor, partial curve].
With `Cc1ccc(C(C(=O)NCC2CCCO2)N(Cc2ccccc2F)C(=O)Cn2nnc(-c3cccs3)n2)cc1` (configuration not stated) the Potency was inconclusive: 20.6 µM [inhibitor, single point].
For `O=C1/C(=C/c2cccnc2)SC(=S)N1CCc1ccccc1`, the Potency was inconclusive: 25.9 µM [activator, single point].
In the case of `CC1(C)Cc2cccc(OCC(=O)Nc3ccccc3F)c2O1`, the Potency is reported as inconclusive: 13 µM [inhibitor, partial curve, poor fit].
For `NC(=O)C1CCN(c2ccc(S(=O)(=O)N3CCC(Cc4ccccc4)CC3)cn2)CC1`, the Potency was inconclusive: 4.11 µM [inhibitor, full curve].
For `COc1cccc2cc(C(=O)NCCc3ccccc3)oc12`, the Potency was “inactive”.
In the case of `CCOC(=O)[C@@H]1[C@H]2COc3ccc(Br)cc3[C@@H]2N2C(=O)N(c3ccc(F)cc3)C(=O)[C@@]12C`, the Potency is reported as “inactive”.
With `O=C1c2ccccc2-c2onc3ccc(Oc4ccccc4)c1c23` the Potency was inconclusive: 29.1 µM [inhibitor, single point].
In the case of `O=C(Cc1cccs1)N/N=C/C=C\c1ccccc1[N+](=O)[O-]`, the Potency is reported as inconclusive: 16.4 µM [activator, partial curve].
For `N#C/C(C(=O)NCc1ccccc1)=C1/SC(Cc2ccc(Cl)cc2)C(=O)N1c1ccccc1` (configuration not stated), the Potency was “inactive”.
With `COC(=O)c1ccc(S(=O)(=O)NNC(=O)COc2ccc(C)cc2)cc1` the Potency was inconclusive: 18.4 µM [activator, partial curve, poor fit].
With `CN(CC(=O)Nc1ccccc1C(F)(F)F)C(=O)c1ccccc1Sc1ccccc1C#N` the Potency was “inactive”.
For `Cc1ccc(-c2cc3onc(-c4ccccc4)c3c(=O)n2C)cc1`, the Potency was inconclusive: 0.1 µM [activator, full curve, poor fit].
For `COc1ccc(CCn2ccc(O)c(Cc3ccc(Cl)cc3)c2=O)cc1OC`, the Potency was inconclusive: 29.1 µM [inhibitor, single point].
In the case of `O=C(Nc1ccc(S(=O)(=O)N2CCCC2)cc1)c1ccc(OCC2CCCO2)cc1` (configuration not stated), the Potency is reported as inconclusive: 10.3 µM [inhibitor, partial curve].
For `O=C(CNc1cccc(Cl)c1)NNC(=S)NCc1ccccc1`, the Potency was “inactive”.
With `COc1ccc(NC(=O)NNC(=O)c2ccc(Cl)cc2Cl)cc1OC` the Potency was “inactive”.
In the case of `O=C(CSc1nnc(Cc2cccs2)n1Cc1ccco1)Nc1cc(Cl)cc(Cl)c1`, the Potency is reported as inconclusive: 14.6 µM [inhibitor, partial curve, poor fit].
In the case of `Cc1ccccc1Nc1nnc(SCC(=O)NC2CCCc3ccccc32)s1` (configuration not stated), the Potency is reported as inconclusive: 23.1 µM [inhibitor, single point].
With `Fc1ccc(N2CCN(Cc3cnc(Oc4ccc(Br)cc4)s3)CC2)cc1` the Potency was inconclusive: 29.1 µM [inhibitor, single point].
With `CCN(C[C@H]1N[C@@](Cc2ccccc2)(C(=O)OC)[C@H]2C(=O)N(C)C(=O)[C@@H]12)S(=O)(=O)c1ccc(C(C)(C)C)cc1` the Potency was inconclusive: 25.9 µM [inhibitor, single point].
With `COc1cc(NC(=O)COc2cccc(OC)c2)cc(OC)c1` the Potency was inconclusive: 16.4 µM [inhibitor, partial curve, poor fit].
With `CSc1ccccc1NC(=O)Nc1cccc(F)c1` the Potency was “inactive”.
In the case of `S=C(NCCc1ccccc1)N/N=C/c1ccccc1Cl`, the Potency is reported as inconclusive: 16.4 µM [activator, partial curve, poor fit].
In the case of `O=C(Nc1ccccc1Cl)c1ccc2nsnc2c1`, the Potency is reported as inconclusive: 9.2 µM [activator, partial curve].
For `Cc1nnc(N/N=C/c2ccccn2)[nH]c1=O`, the Potency was active: 0.92 µM.
With `COc1ccc(/C=C/c2nnc(NC(=O)COc3ccccc3)s2)cc1` the Potency was “inactive”.
In the case of `O=C(Nc1ccccn1)c1ccc(Cl)c(S(=O)(=O)N2CCc3ccccc32)c1`, the Potency is reported as inconclusive: 25.9 µM [inhibitor, partial curve, poor fit].
For `Cc1cc(NC(=O)CSc2ccc3nnc(-c4cccs4)n3n2)no1`, the Potency was inconclusive: 13 µM [inhibitor, partial curve, poor fit].
With `COc1ccc(CCNC(=O)c2c(N)no[n+]2[O-])cc1OC` the Potency was “inactive”.
With `COc1ccc(-c2cc(C(=O)NC(C)C)no2)cc1` the Potency was inconclusive: 4.11 µM [activator, partial curve].
In the case of `O=C(O)CCC(=O)N1CC=C(c2ccccc2)CC1`, the Potency is reported as inconclusive: 16.4 µM [activator, single point].
In the case of `CN(C(=O)c1ccccc1)c1nc2ccccc2s1`, the Potency is reported as inconclusive: 1.41 µM [activator, partial curve, poor fit].
In the case of `Cc1cc(NCCCn2ccnc2)n2nc(-c3ccc(Cl)cc3)cc2n1`, the Potency is reported as inconclusive: 29.1 µM [inhibitor, single point].
With `Cc1ccc(S(=O)(=O)N(C)c2ccc(OC(C)C(=O)N(C)c3ccccc3)cc2)cc1` (configuration not stated) the Potency was inconclusive: 2.06 µM [inhibitor, partial curve, poor fit].
For `Cc1cc(C)c(N(C(=O)Cn2nnc3ccccc32)C(C(=O)NC(C)(C)C)c2ccsc2)c(C)c1` (configuration not stated), the Potency was “inactive”.
With `CC(C)C(NS(=O)(=O)c1cccs1)C(=O)Nc1nc(C(C)(C)C)cs1` (configuration not stated) the Potency was inconclusive: 13 µM [inhibitor, partial curve, poor fit].
For `CC(=O)COc1ccc2c(c1C)O/C(=C\c1ccco1)C2=O`, the Potency was inconclusive: 18.3 µM [activator, partial curve].
With `Cc1nnc(Oc2ccccc2)c2ccccc12` the Potency was inconclusive: 18.4 µM [activator, single point].
With `Cc1c(C(=O)N2CCC(C)CC2)oc2ccc(S(=O)(=O)N3CCC4(CC3)OCCO4)cc12` the Potency was inconclusive: 20.6 µM [inhibitor, single point].
With `COc1ccc(N(Cc2cc(=O)[nH]c3ccccc23)C(=O)CCl)cc1` the Potency was inconclusive: 13 µM [inhibitor, partial curve].
For `c1cncc(-c2nnc(SCc3nc4ccccc4[nH]3)o2)c1`, the Potency was “inactive”.
In the case of `COC(=O)c1cccc(NC(=O)CSc2nnc(COc3ccc(C#N)cc3)n2-c2ccccc2)c1`, the Potency is reported as inconclusive: 23.1 µM [inhibitor, single point].
With `CCS(=O)(=O)c1ccc2oc(Nc3cc(C)cc(C)c3)nc2c1` the Potency was inconclusive: 12.6 µM [inhibitor, single point].
For `O=C(O)CC1S/C(=N/N=C/C2CC=CCC2)NC1=O` (configuration not stated), the Potency was inconclusive: 32.6 µM [activator, partial curve, poor fit].
In the case of `CC(=O)c1cccc(NC(=O)c2cc(S(=O)(=O)N3CCOCC3)cs2)c1`, the Potency is reported as “inactive”.
For `COc1cc(/C=C/C(=O)/C=C(O)/C=C/c2ccc(O)c(OC)c2)ccc1O`, the Potency was inconclusive: 25.9 µM [inhibitor, single point].
For `Cc1cc(NC(=O)c2cccnc2)ccc1NC(=O)c1cc2ccccc2o1`, the Potency was inconclusive: 29.1 µM [inhibitor, single point].
For `COc1ccc(C(=O)Nc2cnc3sc(C)nn3c2=O)cc1`, the Potency was inconclusive: 16.4 µM [activator, partial curve].
In the case of `Cc1ccc(NC(=O)Cn2c(=O)cnc3ccccc32)cc1S(=O)(=O)N1CCOCC1`, the Potency is reported as “inactive”.
In the case of `O=c1[nH]nc(N2CCOCC2)c(=O)[nH]1`, the Potency is reported as “inactive”.
In the case of `Cc1[nH]c(-c2ccccn2)nc(=S)c1Cl`, the Potency is reported as inconclusive: 4.61 µM [activator, single point].
With `CCOC(=O)c1cc2c(N)c(C(=O)c3ccc(Br)cc3)sc2[nH]c1=O` the Potency was “inactive”.
For `CCCC[C@@H]1C=C(C(=O)O)[C@H](c2ccc(C#N)cc2)N1S(=O)(=O)c1ccc(C)cc1`, the Potency was “inactive”.
With `COc1ccc(CN(C)S(=O)(=O)c2nnc(NC(=O)c3ccccc3OC)s2)cc1OC` the Potency was inconclusive: 16.4 µM [inhibitor, single point].
For `O=C(NCCS(=O)(=O)N1CCN(c2cccc(Cl)c2)CC1)c1ccc2c(c1)OCO2`, the Potency was “inactive”.
In the case of `COc1ccc(S(=O)(=O)N2CCC3(CC2)OCCN3S(=O)(=O)c2c(C)cc(C)cc2C)cc1`, the Potency is reported as “inactive”.
In the case of `Cc1ccc(S(=O)(=O)N2CCCCC2C(=O)N2CCN(c3ccccc3F)CC2)cc1` (configuration not stated), the Potency is reported as inconclusive: 23.1 µM [inhibitor, single point].
For `CC(=O)c1sc(N/N=C2\CC3CCC2(C)C3(C)C)nc1C` (configuration not stated), the Potency was “inactive”.
With `CC(=O)Oc1cccc(/C=C2\Sc3ccccc3C2=O)c1` the Potency was “inactive”.
With `COc1ccc(OC)c(CCNC(=O)c2nn(C)c3c2CS(=O)(=O)c2ccccc2-3)c1` the Potency was inconclusive: 32.6 µM [inhibitor, single point].
For `Nc1c(C(=O)NCCc2ccc(Cl)cc2)sc2ccc(S(=O)(=O)N3CCCCC3)cc12`, the Potency was inconclusive: 20.6 µM [inhibitor, partial curve, poor fit].
In the case of `COc1cccc(C(=O)/C=C/Nc2cccc(O)c2)c1`, the Potency is reported as inconclusive: 5.8 µM [activator, partial curve].
In the case of `O=C(Nc1cccc(-c2ccc(N3CCCCC3)nn2)c1)c1ccc(Br)o1`, the Potency is reported as inconclusive: 0.651 µM [activator, partial curve].
With `Cc1sc2ncnc(N/N=C/c3ccc(O)cc3)c2c1C` the Potency was inconclusive: 14.6 µM [inhibitor, partial curve, poor fit].
